Test results: patent US20250180582A1
Results are given in words; binding and its absence hold for the method and conditions named. Some results given as binding are weak or reduced against the parent protein; the word gives no strength.

Legend:
[1] = target: T1, pCold-TF-GPR37-1-265 extracellular segment protein (human) (UniProt O15354); experiment: summary of ELISA/EIA results
T1 sequence: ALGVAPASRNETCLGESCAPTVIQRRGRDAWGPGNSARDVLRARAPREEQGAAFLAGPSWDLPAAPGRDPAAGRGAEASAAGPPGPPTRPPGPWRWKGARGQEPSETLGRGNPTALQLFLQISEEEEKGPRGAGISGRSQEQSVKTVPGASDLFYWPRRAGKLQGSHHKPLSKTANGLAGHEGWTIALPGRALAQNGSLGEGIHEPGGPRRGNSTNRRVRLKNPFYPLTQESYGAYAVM

[2] = target: T1, pCold-TF-GPR37-1-265 extracellular segment protein (human); experiment: indirect ELISA, cell supernatant
[3] = target: T2, pET-32a-GPR37-1-613 full-length antigen (human) (UniProt O15354); experiment: sandwich EIA; coat 6D2, label 5A2-HRP
T2 sequence: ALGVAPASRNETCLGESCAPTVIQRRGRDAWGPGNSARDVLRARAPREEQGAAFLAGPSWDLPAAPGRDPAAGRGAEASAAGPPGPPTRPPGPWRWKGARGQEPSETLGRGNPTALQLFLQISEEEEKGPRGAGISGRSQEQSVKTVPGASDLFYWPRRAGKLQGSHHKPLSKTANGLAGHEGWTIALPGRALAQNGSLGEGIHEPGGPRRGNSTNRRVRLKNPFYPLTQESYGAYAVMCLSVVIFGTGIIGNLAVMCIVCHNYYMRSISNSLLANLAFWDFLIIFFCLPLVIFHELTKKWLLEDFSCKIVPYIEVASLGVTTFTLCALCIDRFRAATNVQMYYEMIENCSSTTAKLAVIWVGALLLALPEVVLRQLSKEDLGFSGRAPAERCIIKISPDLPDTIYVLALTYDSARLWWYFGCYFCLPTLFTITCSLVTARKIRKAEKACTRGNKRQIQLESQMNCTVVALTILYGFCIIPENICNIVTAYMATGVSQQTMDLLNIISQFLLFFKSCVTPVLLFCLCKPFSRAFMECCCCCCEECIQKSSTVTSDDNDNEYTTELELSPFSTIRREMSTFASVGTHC

[4] = target: T1, pCold-TF-GPR37-1-265 extracellular segment protein (human); experiment: sandwich EIA; coat 6D2, label 5A2-HRP

Measured: binding

B1: monoclonal antibody 6D2 (antibody, IgG2a, V domains shown)
VH: EVMLVESGGGLVKPGGSLKLSCAASGFIFSSQAMSWVRQIPEKRLEWVATISSGGSYTYYPDSVKGRFTISRDNAKNTLYLQMSSLTSEDTAMYYCARQRDFGRYYGYDPFFDFWGQGTTLTF
VL: EIVLTQSPTTMAASPGEKITITCSASSSISSNYLHWYQQKPGFSPKLLIYRTSNLPSGVPARFSGSGSGTSYSLTIGTMEAEDVATYYCQQGSSVPRITFGAGTKLE
binds: all assays above

B2: monoclonal antibody 5A2 (antibody, IgG2a, V domains shown)
VH: EVKLVESGGGLVQPGGSLRLSCATSGFIFSDYYMSWVRQPPGKALEWLGYIRNKAKRYTTEYNASVKGRFTISRDNSQNILYLQMNTLRAEDSATYYCARDTSDYDRFAYWGQGTLVTVSA
VL: DIVMTQTPLSLPVSLGDHASLSCKSSQSLVHRNGNTYLHWFLQKPGQSPKLLIYKVSNRFSGVPDRFSGSGSGTDFTLKISRVEAADLGVYFCSQSTLLPYTFGGGTKLEIK
binds: [1] | [2]
